Measured values published in patent US20250042956A1.
Results are given in words; binding and its absence hold for the method and conditions named. For some assays here: In cells and extracts the contact can be indirect. Some binding calls cover weakened binding; strength is not graded here. Sequences can lack the tags named with a protein.

The chains behind the UniProt entries cited, without tags or fusion partners.
UniProt Q8GUI6: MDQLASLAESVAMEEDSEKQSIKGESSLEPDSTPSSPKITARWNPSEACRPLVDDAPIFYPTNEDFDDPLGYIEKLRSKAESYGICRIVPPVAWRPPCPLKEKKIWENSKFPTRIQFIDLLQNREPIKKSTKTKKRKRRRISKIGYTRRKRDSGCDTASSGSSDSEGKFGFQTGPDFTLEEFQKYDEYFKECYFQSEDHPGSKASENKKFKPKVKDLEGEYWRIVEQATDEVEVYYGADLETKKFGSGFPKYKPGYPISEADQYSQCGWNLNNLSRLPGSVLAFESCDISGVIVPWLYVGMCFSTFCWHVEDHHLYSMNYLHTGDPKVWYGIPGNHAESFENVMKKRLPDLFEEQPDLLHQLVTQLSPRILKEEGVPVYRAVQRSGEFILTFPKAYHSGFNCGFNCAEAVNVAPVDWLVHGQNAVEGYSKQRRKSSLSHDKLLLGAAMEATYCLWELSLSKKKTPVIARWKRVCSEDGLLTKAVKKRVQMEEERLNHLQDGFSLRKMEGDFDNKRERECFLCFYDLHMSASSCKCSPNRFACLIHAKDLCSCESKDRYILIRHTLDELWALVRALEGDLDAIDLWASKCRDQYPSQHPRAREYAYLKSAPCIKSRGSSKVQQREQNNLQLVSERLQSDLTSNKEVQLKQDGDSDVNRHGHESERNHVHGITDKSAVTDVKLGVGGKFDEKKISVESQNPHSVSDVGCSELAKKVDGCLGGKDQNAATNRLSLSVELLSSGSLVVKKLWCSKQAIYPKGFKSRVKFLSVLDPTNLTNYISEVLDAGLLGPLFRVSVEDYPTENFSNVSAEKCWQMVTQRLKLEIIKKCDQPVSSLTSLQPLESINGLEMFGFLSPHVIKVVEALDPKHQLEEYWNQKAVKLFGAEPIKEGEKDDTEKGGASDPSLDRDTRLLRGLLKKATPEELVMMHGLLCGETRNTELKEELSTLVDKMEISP

T1: AT4G35510.1 TRBIP1 (Arabidopsis thaliana)
T1 sequence: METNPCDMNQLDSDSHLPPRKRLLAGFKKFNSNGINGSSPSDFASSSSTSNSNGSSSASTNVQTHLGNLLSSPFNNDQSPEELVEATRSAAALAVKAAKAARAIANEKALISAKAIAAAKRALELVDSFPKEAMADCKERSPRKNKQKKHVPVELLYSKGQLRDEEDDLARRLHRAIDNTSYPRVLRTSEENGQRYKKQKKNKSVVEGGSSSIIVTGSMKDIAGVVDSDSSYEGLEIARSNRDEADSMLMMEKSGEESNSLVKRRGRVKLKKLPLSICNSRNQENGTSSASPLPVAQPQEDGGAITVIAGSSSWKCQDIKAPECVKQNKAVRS

T2: AT2G17540.2 TRBIP2 (Arabidopsis thaliana)
T2 sequence: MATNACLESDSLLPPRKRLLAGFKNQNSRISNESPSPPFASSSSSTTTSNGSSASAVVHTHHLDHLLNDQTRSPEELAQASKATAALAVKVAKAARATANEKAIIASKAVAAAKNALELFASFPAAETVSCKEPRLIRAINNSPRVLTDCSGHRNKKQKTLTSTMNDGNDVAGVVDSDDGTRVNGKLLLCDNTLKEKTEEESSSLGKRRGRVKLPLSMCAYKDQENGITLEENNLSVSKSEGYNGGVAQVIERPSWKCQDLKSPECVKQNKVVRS

T3: HD2A (Arabidopsis thaliana) (UniProt Q9FVE6)
T3 sequence: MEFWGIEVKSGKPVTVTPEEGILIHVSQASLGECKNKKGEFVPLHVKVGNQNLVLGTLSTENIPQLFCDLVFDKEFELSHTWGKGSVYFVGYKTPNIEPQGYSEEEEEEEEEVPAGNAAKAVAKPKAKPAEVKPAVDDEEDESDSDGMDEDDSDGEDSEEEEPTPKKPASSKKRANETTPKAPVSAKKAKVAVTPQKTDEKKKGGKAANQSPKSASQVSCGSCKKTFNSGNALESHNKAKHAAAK

T4: HD2C (Arabidopsis thaliana) (UniProt Q9LZR5)
T4 sequence: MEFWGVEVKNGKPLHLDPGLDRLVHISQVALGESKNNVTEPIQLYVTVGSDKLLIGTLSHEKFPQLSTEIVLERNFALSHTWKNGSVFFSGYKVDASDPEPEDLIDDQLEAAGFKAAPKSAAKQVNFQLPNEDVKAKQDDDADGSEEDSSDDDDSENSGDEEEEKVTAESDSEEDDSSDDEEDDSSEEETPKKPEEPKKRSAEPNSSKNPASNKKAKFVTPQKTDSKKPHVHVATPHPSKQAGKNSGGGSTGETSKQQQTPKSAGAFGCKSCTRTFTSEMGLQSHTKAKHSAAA

T5: HD2D (Arabidopsis thaliana) (UniProt Q9M4T3)
T5 sequence (looked up): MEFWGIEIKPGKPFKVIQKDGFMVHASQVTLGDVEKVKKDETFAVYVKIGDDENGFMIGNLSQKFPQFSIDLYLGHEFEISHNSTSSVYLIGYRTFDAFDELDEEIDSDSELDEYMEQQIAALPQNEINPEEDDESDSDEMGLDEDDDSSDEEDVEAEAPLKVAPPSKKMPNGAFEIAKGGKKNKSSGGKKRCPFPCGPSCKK


Key:
[1] = molecular target: Myc-JMJ14 (Arabidopsis thaliana) (UniProt Q8GUI6); assay: co-IP (FLAG-IP, anti-Myc Western), F2 crossed lines
[2] = molecular target: T1, AT4G35510.1 TRBIP1 (Arabidopsis thaliana); assay: IP-MS
[3] = molecular target: T2, AT2G17540.2 TRBIP2 (Arabidopsis thaliana); assay: IP-MS
[4] = molecular target: AT4G20400.1 JMJ14 (Arabidopsis thaliana) (UniProt Q8GUI6); assay: IP-MS, pTRB:TRB-FLAG lines
[5] = molecular target: Myc-JMJ14 (Arabidopsis thaliana) (UniProt Q8GUI6); assay: co-IP of FIG. 22A
[6] = molecular target: T3, HD2A (Arabidopsis thaliana); assay: IP-MS, pHD2B:HD2B-FLAG line
[7] = molecular target: T4, HD2C (Arabidopsis thaliana); assay: IP-MS, pHD2B:HD2B-FLAG line
[8] = molecular target: T5, HD2D (Arabidopsis thaliana); assay: IP-MS, pHD2B:HD2B-FLAG line

binding [1]	binding [2]	binding [3]	binding [4]	binding [5]	binding [6]	binding [7]	binding [8]	Binder
binds	binds	binds	binds	binds				FLAG-TRB2 (protein, not shown: small tags and cut ends) MGAPKQKWTPEEEAALKAGVLKHGTGKWRTILSDSEFSLILKSRSNVDLKDKWRNISVTALWGSRKKAKLALKRTPPGTKQDDNNTALTIVALTNDDERAKPTSPGGSGGGSPRTCASKRSITSLDKIIFEAITNLRELRGSDRTSIFLYIEENFKTPPNMKRHVAVRLKHLSSNGTLVKIKHKYRFSSNFIPAGARQKAPQLFLEGNNKKDPTKPEENGANSLTKFRVDGELYMIKGMTAQEAAEAAARAVAEAEFAITEAEQAAKEAERAEAEAEAAQIFAKAAMKALKFRIRNHPW
					binds	binds	binds	HD2B-FLAG (enzyme, not shown: small tags and cut ends) MEFWGVAVTPKNATKVTPEEDSLVHISQASLDCTVKSGESVVLSVTVGGAKLVIGTLSQDKFPQISFDLVFDKEFELSHSGTKANVHFIGYKSPNIEQDDFTSSDDEDVPEAVPAPAPTAVTANGNAGAAVVKADTKPKAKPAEVKPAEEKPESDEEDESDDEDESEEDDDSEKGMDVDEDDSDDDEEEDSEDEEEEETPKKPEPINKKRPNESVSKTPVSGKKAKPAAAPASTPQKTEEKKKGGHTATPHPAKKGGKSPVNANQSPKSGGQSSGGNNNKKPFNSGKQFGGSNNKGSNKGKGKGRA
